The test can be described thus: qHTS Assay to Find Inhibitors of Chronic Active B-Cell Receptor Signaling. As to conditions: ABC-DLBCL IkBa-CBG/CBR reporter, luminescence ratio (green luciferase fused to IkBa over red control in TMD8 lymphoma cells), 4 h. An outline of the steps:
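Compounds up to 46 uM were incubated four hours with TMD8 cells whose green CBG68 luciferase is fused to IkappaBalpha; red CBR luminescence normalised the signal, and concentration-effect curves were fitted to fusion, red and ratio data.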

The mark [1] stands for this setting: measured here: CBR red luminescence, cell number.
The mark [2] stands for this setting: measured here: IkBa-CBG green luminescence.

As usually defined, the AC50 is the midpoint of the concentration-response curve, whichever way the signal moves.

SMILES strings stand for the structures. The list shows a part of the results. Shown are side measurements of this screen, not its main read-out; they come without a call. Most of these compounds were active or inconclusive in the main read-out, so they are no random draw. Words in brackets tell the shape of the fitted curve; partial curves, single points and poor fits give uncertain potencies.

Consider `O=C(CN1CC(=O)Oc2ccccc21)OCC(=O)c1ccccc1`, for which, under setting [1], the AC50 was 8.2 µM [falling, partial curve].

As to `COc1ccc(C2=NOC(C(=O)NCCCn3ccnc3)C2)cc1` (stereo not drawn), under setting [1], the AC50 was 32.6 µM [rising, single point].

As for `COc1ccc(N2CCN(Cc3cc(=O)oc4cc(C)c(Cl)cc34)CC2)cc1`, the AC50 under setting [1] is 6.51 µM [rising, single point]. With `O=C(N/N=C(\c1ccccc1)c1cccnc1)C(O)(c1ccccc1)c1ccccc1`, the AC50 reads like this: under setting [1], 14.1 µM [falling, single point]; under setting [2], 31.6 µM [rising, partial curve, poor fit]. For the molecule `CCOc1ccccc1C(=O)N[C@H](C(=O)OCc1cc(=O)oc2cc(C)ccc12)C(C)C`, the half-maximal activity concentration (AC50) under setting [1] was 23.1 µM [falling, single point]. Regarding `Oc1ccc2ccccc2c1C=NCc1ccccc1`, the AC50 under setting [1] is 35.5 µM [falling, single point]. On the same count and under the same terms, the figure for `O=C(NCC1CCCO1)c1ccc(COc2ccc(Br)cc2)cc1` (stereo not drawn) is 5.17 µM [rising, single point]; for `C/C(Cn1nnc([N+](=O)[O-])n1)=N\NC(=O)c1ccncc1` it is 10 µM [falling, single point]. Take `Fc1ccc(OCc2nc(-c3ccncc3)n[nH]2)cc1`: the AC50 under setting [1] was 35.5 µM [falling, single point].

With `Cc1ccc2nc(-c3ccc(-c4ccccn4)s3)cn2c1`, the AC50 under setting [1] was 10 µM [falling, partial curve, poor fit].

For `Cc1ccc(CNC(=O)CCc2nnc3ccc(NCCCN4CCCC4=O)nn23)cc1`, under setting [1], the AC50 is 22.4 µM [falling, single point]. On the same count and under the same terms, in the case of `CC(=O)c1ccc(N2CCN(C(=O)c3cccc(Oc4ccccc4)c3)CC2)cc1` it was 14.1 µM [falling, partial curve, poor fit]; in that of `COc1cccc(CSc2nc3ccncc3[nH]2)c1`, 17.8 µM [falling, single point]. Take `C/C=C/C(=O)OCC(=O)Nc1cc(OC)c([N+](=O)[O-])cc1C`: the AC50 is 35.5 µM [falling, partial curve, poor fit] under setting [1] and 31.6 µM [rising, partial curve, poor fit] under setting [2]. For the molecule `O=C(CC1CCCCC1)NCc1ccc(F)cc1`, under setting [1], the AC50 was 7.08 µM [rising, partial curve, poor fit].

With `Cc1ccc(Oc2ccc3c(c2)C(=O)N(c2ccc(S(=O)(=O)Nc4nccs4)cc2)C3=O)cc1`, the AC50 under setting [1] was 14.1 µM [falling, single point]. Consider `Cc1ccccc1NC(=O)COC(=O)c1ccc(S(C)(=O)=O)c([N+](=O)[O-])c1`, for which the AC50 by setting is: under setting [1], 6.31 µM [falling, partial curve]; under setting [2], 10 µM [rising, partial curve, poor fit]. Turning to `COc1ccccc1C(CCN(Cc1cccs1)C(C)=O)c1ccco1` (stereo not drawn), the AC50 under setting [1] is 31.6 µM [falling, single point]. On the same count and under the same terms, the figure for `O=C(CNC(=O)c1cccc(OC(F)F)c1)Nc1ccc(Cl)cc1` is 10 µM [falling, single point].

Turning to `COC(=O)/C(C#N)=C/c1c(N2CCCCCC2)nc2c(C)cccn2c1=O`, the AC50 under setting [1] is 25.1 µM [falling, partial curve, poor fit]. Turning to `CC(=O)Nc1ccc2c(c1)N(C(C)=O)c1ccccc1CC2`, under setting [1], the concentration at half-maximal activity (AC50) was 5.01 µM [falling, partial curve, poor fit]. In the case of `CN1/C(=C\C(=O)c2cccnc2)Sc2ccccc21`, the AC50 under setting [1] was 35.5 µM [falling, single point]. Still for that read-out and setting: the figure for `O=C(NC1CC(=O)N(c2cccc(F)c2)C1)C(=O)c1c[nH]c2ccccc12` (stereo not drawn) is 1.46 µM [falling, full curve]; for `CCN1C(=O)/C(=C\c2nc3ccccc3c(=O)n2-c2ccccc2)c2ccccc21` it is 4.11 µM [rising, partial curve, poor fit]; for `COc1cc2c(=O)n(Cc3ccco3)c(=O)n(CC(=O)c3cccc(Br)c3)c2cc1OC` it is 0.708 µM [falling, full curve, poor fit]. The same measure, in the same setting: the figure for `O=C(CN1C(=O)NC2(CCOc3ccccc32)C1=O)Nc1cccc(Cl)c1` (stereo not drawn) is 14.1 µM [falling, single point]; for `COc1cc(Nc2nc(SCC(=O)c3ccc(Cl)c(Cl)c3)nc3ccccc23)cc(OC)c1` it is 5.62 µM [falling, single point]. The same measure, in the same setting: the figure for `Cc1ccc(S(=O)(=O)Nc2ccc(O)c3cccnc23)cc1` is 35.5 µM [falling, single point]. As for `CC(=O)C1=C(O)C(=O)N(c2ccc(Br)cn2)C1c1ccccc1[N+](=O)[O-]` (stereo not drawn), the half-maximal activity concentration (AC50) under setting [1] was 11.2 µM [falling, partial curve, poor fit]. The same measure, in the same setting: the figure for `COc1cccc(NC(=O)CNC(=O)[C@@H]2Cc3ccccc3CN2C(=O)OC(C)(C)C)c1` is 0.282 µM [falling, full curve, poor fit]; for `C=CCN(Cc1cc(OC)ccc1OC)S(=O)(=O)N(C)C` it is 4.47 µM [rising, partial curve]; for `C=CCn1c(=O)c2ccccc2n2c(=S)[nH]nc12` it is 6.31 µM [falling, single point].

Regarding `COc1ccccc1-c1nc2s/c(=C\c3cccs3)c(=O)n2n1`, the AC50 under setting [1] is 20.6 µM [falling, partial curve, poor fit].

As to `CC(=O)OCC1(C)CN(c2ccccc2)N(C(=O)c2ccc(F)cc2)C1=O` (stereo not drawn), the AC50 under setting [1] is 15.8 µM [falling, single point]. Still for that read-out and setting: the figure for `CCOCCCNC(=O)/C(C#N)=C/c1ccc(Cl)c([N+](=O)[O-])c1` is 12.6 µM [falling, partial curve]. On to `COc1cc(OC)cc(-c2cc3ncccc3cn2)c1`, for which, under setting [1], the AC50 was 20.6 µM [falling, single point]. As for `O=C(Nc1ccccc1C(=O)Nc1ccc(F)cc1)c1ccco1`, the AC50 under setting [1] is 15.8 µM [falling, partial curve, poor fit]. The same measure, in the same setting: the figure for `COc1cc(/C=C2\CCc3ccccc3C2=O)cc(OC)c1OC` is 29.1 µM [falling, single point].

In the case of `O=C(Nc1nc(-c2ccccc2)cs1)c1cccnc1`, under setting [1], the AC50 is 0.092 µM [falling, full curve, poor fit]. On to `COc1ccc(CC(=O)N[C@@H](CCSC)c2nc3ccccc3[nH]2)cc1`, for which the AC50 under setting [1] is 0.794 µM [rising, full curve, poor fit].

For the origin of these results see PubChem BioAssay AID493014 (National Center for Advancing Translational Sciences (NCATS), 2011).
